{"source": "the supplement of paper PMC12889115", "system": "Salmonella enterica serovar Typhimurium SL1344", "assay": "bacterial growth OD600 after 18 h with compound and polymyxin B; higher = more bacterial growth (less inhibition)", "details": "50 µM, Mueller-Hinton broth", "note": "The list shows a part of the results. These are raw signals, not scaled to a control.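 In the initial screen, polymyxin B was used at a concentration that permeabilizes Salmonella's outer membrane but not its inner membrane. Maximum growth was set by DMSO wells with or without polymyxin B. Since plates varied, data were ranked per plate, and compounds giving the lowest OD600 advanced as hits.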", "data": [{"smiles": "CC(=O)N1CCC(N2CCCC(CCc3ccc(F)cc3F)C2)CC1", "note": "(stereo unspecified)", "values": [{"measurement": "bacterial growth OD600", "setting": "polymyxin B 0.75 µg/mL", "result": 0.836}]}, {"smiles": "COCCO[C@H]1[C@H](NC(=O)C(C)C)c2ccccc2C12CCN(Cc1nc3ccccc3s1)CC2", "values": [{"measurement": "bacterial growth OD600", "setting": "polymyxin B 0.75 µg/mL", "result": 0.632}]}, {"smiles": "COCc1c(C(=O)N(C)CC2COCCO2)cnn1-c1nccc(-c2cc(C)sc2C)n1", "note": "(stereo unspecified)", "values": [{"measurement": "bacterial growth OD600", "setting": "polymyxin B 0.75 µg/mL", "result": 0.866}]}, {"smiles": "CCN(CC)C1CCN(C(=O)CN2Cc3cc(Cl)ccc3OC(C)C2)C1", "note": "(stereo unspecified)", "values": [{"measurement": "bacterial growth OD600", "setting": "polymyxin B 0.75 µg/mL", "result": 0.846}]}, {"smiles": "O=C(c1ccc(N2CCC(NCCc3ccc(C(F)(F)F)cc3)CC2)cc1)N1CCOCC1", "values": [{"measurement": "bacterial growth OD600", "setting": "polymyxin B 0.75 µg/mL", "result": 0.005}]}, {"smiles": "Cc1ccc(OCc2cc(C(=O)N3CCCC(CN4CCOCC4)C3)no2)cn1", "note": "(stereo unspecified)", "values": [{"measurement": "bacterial growth OD600", "setting": "polymyxin B 1 µg/mL", "result": 1.05}]}, {"smiles": "CN(C)c1ncc(CN2CCC(CCC(=O)NCc3cccnc3)CC2)s1", "values": [{"measurement": "bacterial growth OD600", "setting": "polymyxin B 1 µg/mL", "result": 0.926}]}, {"smiles": "COc1ccccc1OCC(=O)N1CCc2c(cnc(C)c2CNC(=O)C(OC)c2ccccc2)C1", "note": "(stereo unspecified)", "values": [{"measurement": "bacterial growth OD600", "setting": "polymyxin B 0.75 µg/mL", "result": 0.714}]}, {"smiles": "C[C@@H]1CN(C2(C(=O)N3CCc4sccc4C3)Cc3ccccc3C2)C[C@H](C)O1", "values": [{"measurement": "bacterial growth OD600", "setting": "polymyxin B 0.75 µg/mL", "result": 0.276}]}, {"smiles": "NC(=O)CC1CCCCN1c1ccc(-c2nc(-c3ccccc3F)no2)cn1", "note": "(stereo unspecified)", "values": [{"measurement": "bacterial growth OD600", "setting": "polymyxin B 1 µg/mL", "result": 0.397}]}, {"smiles": "COc1ccc(C(=O)N2CCc3onc(-c4cccc(F)c4)c3C2)c(OC)c1", "values": [{"measurement": "bacterial growth OD600", "setting": "polymyxin B 0.75 µg/mL", "result": 0.461}]}, {"smiles": "COC(=O)c1cc(CNC(=O)[C@@H]2C[C@@H]3C=C[C@H]2C3)cc(NS(=O)(=O)c2ccc(F)cc2)c1", "values": [{"measurement": "bacterial growth OD600", "setting": "polymyxin B 0.75 µg/mL", "result": 0.769}]}, {"smiles": "O=C(Cn1nnnc1CN1CCCCCC1)NCCc1c[nH]c2ccccc12", "values": [{"measurement": "bacterial growth OD600", "setting": "polymyxin B 0.75 µg/mL", "result": 0.78}]}, {"smiles": "Cc1cc(-n2cccn2)ccc1CNC1CCCc2c1cnn2-c1ccccn1", "note": "(stereo unspecified)", "values": [{"measurement": "bacterial growth OD600", "setting": "polymyxin B 0.75 µg/mL", "result": 0.766}]}, {"smiles": "CCOC(=O)C1(Cc2cccc(OC)c2)CCN(Cc2cccn2-c2nccs2)CC1", "values": [{"measurement": "bacterial growth OD600", "setting": "polymyxin B 1 µg/mL", "result": 0.767}]}, {"smiles": "COc1cc(OC)cc(C(=O)NCC2CCCN(C(=O)c3cc(C)on3)C2)c1", "note": "(stereo unspecified)", "values": [{"measurement": "bacterial growth OD600", "setting": "polymyxin B 1 µg/mL", "result": 0.935}]}, {"smiles": "CC(C)CCCC1CN(C(=O)CCN2CCCO2)CCO1", "note": "(stereo unspecified)", "values": [{"measurement": "bacterial growth OD600", "setting": "polymyxin B 1 µg/mL", "result": 0.943}]}, {"smiles": "COc1cc(CN2CCCC(CO)(Cc3cccc(Cl)c3)C2)cc(Cl)c1OC", "note": "(stereo unspecified)", "values": [{"measurement": "bacterial growth OD600", "setting": "polymyxin B 1 µg/mL", "result": 0.001}]}, {"smiles": "C=CCNCCC1CCC(=O)N1CCCc1ccccc1", "note": "(stereo unspecified)", "values": [{"measurement": "bacterial growth OD600", "setting": "polymyxin B 0.75 µg/mL", "result": 0.769}]}, {"smiles": "COc1ccc2c(c1)OC(C)CN(CC(=O)NCC(c1ccc(F)cc1)N1CCCC1)C2", "note": "(stereo unspecified)", "values": [{"measurement": "bacterial growth OD600", "setting": "polymyxin B 0.75 µg/mL", "result": 0.702}]}, {"smiles": "CC#CCN1C(=O)NC(CCc2ccccc2)(C2CCN(C(=O)/C=C/c3ccccc3)CC2)C1=O", "note": "(stereo unspecified)", "values": [{"measurement": "bacterial growth OD600", "setting": "polymyxin B 0.75 µg/mL", "result": 0.033}]}, {"smiles": "CCOC(=O)N1CCC(NC(=O)CC2(c3ccccc3C)CC(=O)N(CCCOC)C2=O)CC1", "note": "(stereo unspecified)", "values": [{"measurement": "bacterial growth OD600", "setting": "polymyxin B 0.75 µg/mL", "result": 0.861}]}, {"smiles": "Cc1oc(-c2cccc(Oc3ccccc3)c2)nc1CN1CCN(c2cnccn2)CC1", "values": [{"measurement": "bacterial growth OD600", "setting": "polymyxin B 1 µg/mL", "result": 0.003}]}, {"smiles": "Cc1oc(-c2ccccc2NS(=O)(=O)c2cccc(F)c2)nc1CNC(=O)CCc1ccccc1", "values": [{"measurement": "bacterial growth OD600", "setting": "polymyxin B 0.75 µg/mL", "result": 0.655}]}, {"smiles": "Cc1ccc(NC2CCCN(C(=O)C(C)(C)C)C2)cc1C", "note": "(stereo unspecified)", "values": [{"measurement": "bacterial growth OD600", "setting": "polymyxin B 1 µg/mL", "result": 0.851}]}, {"smiles": "O=C(C1CCOC1)N1CCc2[nH]nc(-c3cccc(F)c3)c2C1", "note": "(stereo unspecified)", "values": [{"measurement": "bacterial growth OD600", "setting": "polymyxin B 0.75 µg/mL", "result": 0.839}]}, {"smiles": "O=C(Nc1ccc(Oc2cccnc2)cc1)C1CCCCN1Cc1cccc2nonc12", "note": "(stereo unspecified)", "values": [{"measurement": "bacterial growth OD600", "setting": "polymyxin B 0.75 µg/mL", "result": 0.38}]}, {"smiles": "CCN(CC)C(=O)C1CCCN(C(=O)CC2(c3cccc(C(F)(F)F)c3)CC(=O)N(CC)C2=O)C1", "note": "(stereo unspecified)", "values": [{"measurement": "bacterial growth OD600", "setting": "polymyxin B 0.75 µg/mL", "result": 0.911}]}, {"smiles": "CC(C)Nc1ccc(-c2nc(COc3ccccc3)no2)cn1", "values": [{"measurement": "bacterial growth OD600", "setting": "polymyxin B 1 µg/mL", "result": 0.055}]}, {"smiles": "O=C(NCC1(c2ccccc2)CCOCC1)c1cn(Cc2ccc(F)cc2)nn1", "values": [{"measurement": "bacterial growth OD600", "setting": "polymyxin B 1 µg/mL", "result": 1.11}]}, {"smiles": "COC(=O)CCC(=O)N1CCCC(C(=O)c2ccc(-c3ccccc3)c(F)c2)C1", "note": "(stereo unspecified)", "values": [{"measurement": "bacterial growth OD600", "setting": "polymyxin B 1 µg/mL", "result": 0.127}]}]}
